In assay [1] the target is T1, thioredoxin-interacting protein (mouse (endogenous in BMDMs)) (UniProt Q8BG60).
T1 sequence: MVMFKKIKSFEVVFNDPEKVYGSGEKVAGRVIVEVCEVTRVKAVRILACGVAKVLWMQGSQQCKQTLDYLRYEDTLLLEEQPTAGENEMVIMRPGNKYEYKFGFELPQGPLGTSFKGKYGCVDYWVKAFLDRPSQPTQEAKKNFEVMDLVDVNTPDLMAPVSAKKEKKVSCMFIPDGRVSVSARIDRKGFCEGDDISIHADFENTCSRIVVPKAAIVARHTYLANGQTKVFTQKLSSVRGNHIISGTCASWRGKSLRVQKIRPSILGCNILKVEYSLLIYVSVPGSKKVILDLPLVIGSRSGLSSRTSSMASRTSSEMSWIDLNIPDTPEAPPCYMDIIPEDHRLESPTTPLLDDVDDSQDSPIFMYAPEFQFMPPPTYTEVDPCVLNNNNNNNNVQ
The experiment in a line: condition: only cells treated with corilagin (40 μM) before nigericin; co-IP; as a1, but LPS-primed BMDMs incubated with corilagin (40 μM) for 30 min before nigericin for 1 h; anti-TXNIP precipitation.

The chains behind the UniProt entries cited, without tags or fusion partners.
UniProt Q8R4B8: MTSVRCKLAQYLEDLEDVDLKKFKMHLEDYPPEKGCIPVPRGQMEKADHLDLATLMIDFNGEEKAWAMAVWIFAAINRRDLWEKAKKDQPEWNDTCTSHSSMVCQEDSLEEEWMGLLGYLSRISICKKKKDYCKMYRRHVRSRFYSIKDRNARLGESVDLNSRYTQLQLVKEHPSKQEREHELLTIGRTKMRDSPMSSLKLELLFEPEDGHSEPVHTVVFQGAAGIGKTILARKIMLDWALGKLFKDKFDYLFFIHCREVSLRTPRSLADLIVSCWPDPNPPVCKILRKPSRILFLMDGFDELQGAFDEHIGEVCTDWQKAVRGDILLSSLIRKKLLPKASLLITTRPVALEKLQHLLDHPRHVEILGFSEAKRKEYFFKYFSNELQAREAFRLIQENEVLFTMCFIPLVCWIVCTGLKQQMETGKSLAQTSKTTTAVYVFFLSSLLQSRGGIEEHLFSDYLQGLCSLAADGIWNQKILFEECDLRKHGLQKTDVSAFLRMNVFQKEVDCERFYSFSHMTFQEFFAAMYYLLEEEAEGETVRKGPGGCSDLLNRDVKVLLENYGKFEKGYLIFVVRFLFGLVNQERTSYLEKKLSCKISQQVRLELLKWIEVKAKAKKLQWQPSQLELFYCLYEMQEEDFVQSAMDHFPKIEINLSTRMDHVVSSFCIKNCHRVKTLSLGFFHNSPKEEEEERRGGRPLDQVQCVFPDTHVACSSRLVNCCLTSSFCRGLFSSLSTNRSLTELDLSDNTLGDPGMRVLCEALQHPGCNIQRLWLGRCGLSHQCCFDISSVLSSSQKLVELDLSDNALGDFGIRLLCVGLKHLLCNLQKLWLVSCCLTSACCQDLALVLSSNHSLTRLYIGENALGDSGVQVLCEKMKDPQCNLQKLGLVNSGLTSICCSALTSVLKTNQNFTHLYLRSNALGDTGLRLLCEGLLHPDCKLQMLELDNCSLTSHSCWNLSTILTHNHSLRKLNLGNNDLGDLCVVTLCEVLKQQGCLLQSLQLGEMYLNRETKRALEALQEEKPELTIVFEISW

Assay [2] addresses T1, thioredoxin-interacting protein (mouse (endogenous in BMDMs)). The experiment in a line: co-IP; lysates of LPS-primed mouse BMDMs stimulated with nigericin (1 h) or MSU (also with corilagin 40 μM and imiquimod 70 μM in the MSU experiment); anti-TXNIP antibody or IgG at 4°C overnight, protein A/G agarose beads, blot for NLRP3.

Results are given in words; binding and its absence hold for the method and conditions named. In cells and extracts the contact can be indirect. Some entries that bind do so weakly or less than the wild type.

With “NLR family pyrin domain-containing protein 3 (from UniProt Q8R4B8 1-1033)”, the values for the binding result in assay [1] and in assay [2] were “no binding” and “binds”, respectively.

(Values after PMC9592212.)
